Results as given in the supplement of paper PMC6078165.
The reference is the same well before dosing, and untreated signal decays as well.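 Fibroblast labels denote human fibroblasts, mainly primary ones from uterus (C12385, HUF), lung (H6013), bone (Hs27A), adrenal (HADF) and skin (WS1), plus mammary HMF and breast cancer-associated Hs343T. Cancer cells are basal-like or mesenchymal-like triple-negative breast cancer lines. A hit is a response shift exceeding 3x replicate standard deviation. The tissue of the other fibroblasts is not given here.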

Tested on: MDAMB231
Assay: relative JC-1 red fluorescence (viability) vs pre-drug, coculture with fibroblast (fraction); higher = more viable cancer cells
Method: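 JC-1 labelled TNBC cells cocultured 1:1 (1,500 cells each) with CellTrace Violet stained primary or stromal fibroblasts in 384-well plates in FluoroBrite medium, treated with one of 42 anticancer drugs at 0.1, 1, 10 or 100 uM. JC-1 red fluorescence (mitochondrial integrity in cancer cells only) was read by plate reader every 8 h for 72 h. Values are normalised to each well's pre-drug value. The stock of one drug was tenfold lower, so its dose labels may be too high.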

Nc1ccn([C@@H]2O[C@H](CO)[C@@H](O)C2(F)F)c(=O)n1 [Gemcitabine]
relative JC-1 red fluorescence
Settings | 8 h | 16 h | 24 h | 32 h | 40 h | 48 h | 56 h | 64 h | 72 h
0.1 µM, coculture fibroblast: C12385 | 0.773 | 0.71 | 0.635 | 0.598 | 0.534 | 0.51 | 0.47 | 0.468 | 0.457
0.1 µM, coculture fibroblast: H6013 | 0.905 | 0.811 | 0.779 | 0.7679 | 0.708 | 0.678 | 0.6531 | 0.637 | 0.598
0.1 µM, coculture fibroblast: H6019 | 0.7568 | 0.652 | 0.594 | 0.5484 | 0.4965 | 0.485 | 0.442 | 0.431 | 0.3973
0.1 µM, coculture fibroblast: H6076 | 0.878 | 0.784 | 0.7312 | 0.7192 | 0.685 | 0.653 | 0.64 | 0.63 | 0.634
0.1 µM, coculture fibroblast: H6231 | 0.879 | 0.781 | 0.712 | 0.667 | 0.621 | 0.5913 | 0.5533 | 0.549 | 0.533
0.1 µM, coculture fibroblast: HADF | 0.8948 | 0.839 | 0.781 | 0.753 | 0.708 | 0.654 | 0.634 | 0.618 | 0.564
0.1 µM, coculture fibroblast: HCFa | 0.876 | 0.796 | 0.7549 | 0.73022 | 0.687 | 0.648 | 0.603 | 0.564 | 0.511
0.1 µM, coculture fibroblast: HCPF | 0.9522 | 0.844 | 0.739 | 0.698 | 0.6475 | 0.596 | 0.557 | 0.5192 | 0.4761
0.1 µM, coculture fibroblast: HHSteC | 0.9087 | 0.85 | 0.801 | 0.746 | 0.7 | 0.671 | 0.622 | 0.587 | 0.531
0.1 µM, coculture fibroblast: HMF | 0.8961 | 0.794 | 0.738 | 0.696 | 0.655 | 0.621 | 0.59 | 0.568 | 0.541
0.1 µM, coculture fibroblast: HPFa | 0.9174 | 0.86 | 0.803 | 0.752 | 0.719 | 0.681 | 0.627 | 0.5978 | 0.546
0.1 µM, coculture fibroblast: HUF | 0.869 | 0.762 | 0.773 | 0.667 | 0.596 | 0.578 | 0.537 | 0.538 | 0.516
0.1 µM, coculture fibroblast: Hs5 | 0.873 | 0.788 | 0.763 | 0.733 | 0.71 | 0.667 | 0.649 | 0.635 | 0.624
0.1 µM, coculture fibroblast: Hs27A | 0.8738 | 0.8116 | 0.763 | 0.73 | 0.681 | 0.612 | 0.618 | 0.596 | 0.553
0.1 µM, coculture fibroblast: Hs343T | 0.942 | 0.813 | 0.746 | 0.707 | 0.655 | 0.603 | 0.543 | 0.509 | 0.469
0.1 µM, coculture fibroblast: WS1 | 0.7611 | 0.654 | 0.649 | 0.577 | 0.537 | 0.522 | 0.485 | 0.501 | 0.501
1 µM, coculture fibroblast: C12385 | 0.749 | 0.693 | 0.645 | 0.627 | 0.57394 | 0.547 | 0.508 | 0.506 | 0.502
1 µM, coculture fibroblast: H6013 | 0.889 | 0.808 | 0.766 | 0.751 | 0.703 | 0.6824 | 0.643 | 0.62 | 0.574
1 µM, coculture fibroblast: H6019 | 0.7 | 0.629 | 0.602 | 0.539 | 0.48 | 0.455 | 0.414 | 0.402 | 0.364
1 µM, coculture fibroblast: H6076 | 0.877 | 0.761 | 0.729 | 0.709 | 0.662 | 0.637 | 0.619 | 0.607 | 0.617
1 µM, coculture fibroblast: H6231 | 0.8754 | 0.772 | 0.707 | 0.675 | 0.618 | 0.589 | 0.555 | 0.551 | 0.547
1 µM, coculture fibroblast: HADF | 0.858 | 0.785 | 0.755 | 0.718 | 0.6852 | 0.6555 | 0.6234 | 0.5938 | 0.5351
1 µM, coculture fibroblast: HCFa | 0.8878 | 0.817 | 0.7701 | 0.7376 | 0.669 | 0.626 | 0.585 | 0.546 | 0.489
1 µM, coculture fibroblast: HCPF | 0.922 | 0.815 | 0.724 | 0.697 | 0.63 | 0.585 | 0.53 | 0.479 | 0.432
1 µM, coculture fibroblast: HHSteC | 0.889 | 0.825 | 0.786 | 0.742 | 0.698 | 0.665 | 0.623 | 0.598 | 0.544
1 µM, coculture fibroblast: HMF | 0.869 | 0.754 | 0.7211 | 0.6978 | 0.658 | 0.6251 | 0.5921 | 0.5814 | 0.5626
1 µM, coculture fibroblast: HPFa | 0.944 | 0.8922 | 0.854 | 0.801 | 0.7781 | 0.7452 | 0.691 | 0.664 | 0.607
1 µM, coculture fibroblast: HUF | 0.845 | 0.733 | 0.716 | 0.61 | 0.544 | 0.529 | 0.461 | 0.449 | 0.438
1 µM, coculture fibroblast: Hs5 | 0.893 | 0.78 | 0.721 | 0.675 | 0.627 | 0.578 | 0.54637 | 0.5232 | 0.514
1 µM, coculture fibroblast: Hs27A | 0.875 | 0.813 | 0.7978 | 0.778 | 0.745 | 0.695 | 0.699 | 0.686 | 0.634
1 µM, coculture fibroblast: Hs343T | 0.89201 | 0.757 | 0.689 | 0.65 | 0.587 | 0.54 | 0.488 | 0.461 | 0.424
1 µM, coculture fibroblast: WS1 | 0.714 | 0.609 | 0.588 | 0.519 | 0.478 | 0.458 | 0.423 | 0.432 | 0.427
10 µM, coculture fibroblast: C12385 | 0.7806 | 0.711 | 0.64 | 0.623 | 0.571 | 0.5378 | 0.4907 | 0.486 | 0.469
10 µM, coculture fibroblast: H6013 | 0.892 | 0.842 | 0.795 | 0.759 | 0.705 | 0.655 | 0.621 | 0.589 | 0.539
10 µM, coculture fibroblast: H6019 | 0.8026 | 0.737 | 0.6721 | 0.663 | 0.606 | 0.575 | 0.528 | 0.52 | 0.492
10 µM, coculture fibroblast: H6076 | 0.91 | 0.829 | 0.774 | 0.733 | 0.663 | 0.606 | 0.562 | 0.534 | 0.524
10 µM, coculture fibroblast: H6231 | 0.791 | 0.868 | 0.8 | 0.745 | 0.695 | 0.653 | 0.609 | 0.582 | 0.55
10 µM, coculture fibroblast: HADF | 0.869 | 0.8332 | 0.8098 | 0.7674 | 0.7303 | 0.67 | 0.649 | 0.603 | 0.547
10 µM, coculture fibroblast: HCFa | 0.88599 | 0.8329 | 0.8 | 0.766 | 0.724 | 0.67 | 0.639 | 0.594 | 0.535
10 µM, coculture fibroblast: HCPF | 0.889 | 0.779 | 0.727 | 0.71 | 0.663 | 0.618 | 0.576 | 0.549 | 0.524
10 µM, coculture fibroblast: HHSteC | 0.8904 | 0.821 | 0.791 | 0.757 | 0.712 | 0.678 | 0.625 | 0.6 | 0.544
10 µM, coculture fibroblast: HMF | 0.839 | 0.879 | 0.811 | 0.759 | 0.697 | 0.643 | 0.568 | 0.534 | 0.494
10 µM, coculture fibroblast: HPFa | 0.935 | 0.8711 | 0.8256 | 0.7765 | 0.747 | 0.7 | 0.651 | 0.616 | 0.566
10 µM, coculture fibroblast: HUF | 0.87 | 0.724 | 0.699 | 0.594 | 0.536 | 0.511 | 0.466 | 0.46643 | 0.46
10 µM, coculture fibroblast: Hs5 | 0.94 | 0.842 | 0.785 | 0.745 | 0.686 | 0.614 | 0.5673 | 0.5349 | 0.5165
10 µM, coculture fibroblast: Hs27A | 0.908 | 0.8427 | 0.813 | 0.8 | 0.755 | 0.677 | 0.683 | 0.65 | 0.605
10 µM, coculture fibroblast: Hs343T | 0.854 | 0.782 | 0.737 | 0.704 | 0.666 | 0.625 | 0.552 | 0.521 | 0.486
10 µM, coculture fibroblast: WS1 | 0.7653 | 0.682 | 0.613 | 0.5857 | 0.54 | 0.512 | 0.46 | 0.458 | 0.439
100 µM, coculture fibroblast: C12385 | 0.749 | 0.727 | 0.603 | 0.6 | 0.529 | 0.505 | 0.457 | 0.452 | 0.433
100 µM, coculture fibroblast: H6013 | 0.8981 | 0.8558 | 0.835 | 0.81 | 0.742 | 0.708 | 0.681 | 0.657 | 0.629
100 µM, coculture fibroblast: H6019 | 0.764 | 0.693 | 0.636 | 0.604 | 0.552 | 0.525 | 0.48 | 0.488 | 0.462
100 µM, coculture fibroblast: H6076 | 0.907 | 0.827 | 0.807 | 0.786 | 0.744 | 0.692 | 0.654 | 0.626 | 0.619
100 µM, coculture fibroblast: H6231 | 0.851 | 0.897 | 0.814 | 0.753 | 0.679 | 0.632 | 0.576 | 0.535 | 0.497
100 µM, coculture fibroblast: HADF | 0.89 | 0.837 | 0.811 | 0.785 | 0.742 | 0.707 | 0.684 | 0.647 | 0.598
100 µM, coculture fibroblast: HCFa | 0.9118 | 0.839 | 0.797 | 0.762 | 0.71 | 0.651 | 0.612 | 0.567 | 0.508
100 µM, coculture fibroblast: HCPF | 0.881 | 0.774 | 0.6989 | 0.679 | 0.628 | 0.597 | 0.566 | 0.539 | 0.512
100 µM, coculture fibroblast: HHSteC | 0.8997 | 0.839 | 0.798 | 0.762 | 0.717 | 0.676 | 0.628 | 0.59 | 0.532
100 µM, coculture fibroblast: HMF | 0.859 | 0.756 | 0.723 | 0.692 | 0.647 | 0.624 | 0.593 | 0.5817 | 0.562
100 µM, coculture fibroblast: HPFa | 0.9487 | 0.892 | 0.847 | 0.812 | 0.783 | 0.74496 | 0.68941 | 0.664 | 0.616
100 µM, coculture fibroblast: HUF | 0.842 | 0.724 | 0.712 | 0.601 | 0.5383 | 0.5265 | 0.481 | 0.489 | 0.481
100 µM, coculture fibroblast: Hs5 | 0.9108 | 0.8209 | 0.779 | 0.735 | 0.692 | 0.642 | 0.616 | 0.59 | 0.587
100 µM, coculture fibroblast: Hs27A | 0.8943 | 0.844 | 0.823 | 0.797 | 0.759 | 0.699 | 0.703 | 0.688 | 0.636
100 µM, coculture fibroblast: Hs343T | 0.913 | 0.8 | 0.731 | 0.689 | 0.639 | 0.594 | 0.533 | 0.501 | 0.457
100 µM, coculture fibroblast: WS1 | 0.769 | 0.7 | 0.677 | 0.6354 | 0.601 | 0.582 | 0.545 | 0.54 | 0.524
